For the experiment, the target named is FLAG-tagged wild-type hnRNPAB (heterogeneous nuclear ribonucleoprotein A/B), full-length (human) (UniProt Q99729). The experiment is described as follows: affinity purification with mass spectrometry; lysates of 293T cells expressing FLAG-tagged hnRNPAB, IP with anti-FLAG antibody crosslinked to protein A/G magnetic beads, overnight at 4 °C, eluate analysed by LC-MS.

The chains behind the UniProt entries cited, without tags or fusion partners.
UniProt Q99729: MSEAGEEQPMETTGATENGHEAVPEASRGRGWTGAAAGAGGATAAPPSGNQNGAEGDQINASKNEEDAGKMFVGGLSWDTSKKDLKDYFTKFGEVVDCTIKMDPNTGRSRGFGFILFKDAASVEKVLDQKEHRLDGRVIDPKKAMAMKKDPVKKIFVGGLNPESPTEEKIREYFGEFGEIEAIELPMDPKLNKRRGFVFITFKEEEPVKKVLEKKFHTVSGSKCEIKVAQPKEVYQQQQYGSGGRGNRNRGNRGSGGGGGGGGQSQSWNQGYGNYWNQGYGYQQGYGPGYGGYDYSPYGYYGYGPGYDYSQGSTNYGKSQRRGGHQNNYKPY
UniProt Q14258: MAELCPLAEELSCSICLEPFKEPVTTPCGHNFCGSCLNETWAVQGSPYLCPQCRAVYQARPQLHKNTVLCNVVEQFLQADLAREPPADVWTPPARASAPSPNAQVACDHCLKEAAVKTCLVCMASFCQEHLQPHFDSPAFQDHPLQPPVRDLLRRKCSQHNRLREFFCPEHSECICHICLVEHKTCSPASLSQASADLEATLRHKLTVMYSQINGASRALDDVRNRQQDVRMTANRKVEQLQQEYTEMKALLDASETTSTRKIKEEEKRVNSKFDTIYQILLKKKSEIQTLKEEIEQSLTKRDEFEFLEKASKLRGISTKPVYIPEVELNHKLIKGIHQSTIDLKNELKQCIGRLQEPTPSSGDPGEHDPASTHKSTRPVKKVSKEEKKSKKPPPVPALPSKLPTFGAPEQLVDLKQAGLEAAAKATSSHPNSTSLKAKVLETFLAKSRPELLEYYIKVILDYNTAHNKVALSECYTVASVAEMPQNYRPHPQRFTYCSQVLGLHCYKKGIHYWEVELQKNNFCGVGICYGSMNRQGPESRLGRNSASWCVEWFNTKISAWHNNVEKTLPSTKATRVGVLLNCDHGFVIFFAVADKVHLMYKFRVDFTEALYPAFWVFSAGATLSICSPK

These are yes or no findings as the source states them, for the method shown. Binding seen in cells or lysates may run through a third protein. These calls come from enrichment with a bait or labelling near it, and not all partners need be listed. Tags and fused reporters may be left off the sequences shown.

With “TRIM25 (tripartite motif-containing protein 25) found with FLAG-hnRNPAB in 293T cells (from UniProt Q14258 1-630) (enzyme)”, the binding entry was “binds”.

B1: MKRN2 found with FLAG-hnRNPAB in 293T cells (enzyme, UniProt Q9H000 1-416)
chain: MSTKQITCRYFMHGVCREGSQCLFSHDLANSKPSTICKYYQKGYCAYGTRCRYDHTRPSAAAGGAVGTMAHSVPSPAFHSPHPPSEVTASIVKTNSHEPGKREKRTLVLRDRNLSGMAERKTQPSMVSNPGSCSDPQPSPEMKPHSYLDAIRSGLDDVEASSSYSNEQQLCPYAAAGECRFGDACVYLHGEVCEICRLQVLHPFDPEQRKAHEKICMLTFEHEMEKAFAFQASQDKVCSICMEVILEKASASERRFGILSNCNHTYCLSCIRQWRCAKQFENPIIKSCPECRVISEFVIPSVYWVEDQNKKNELIEAFKQGMGKKACKYFEQGKGTCPFGSKCLYRHAYPDGRLAEPEKPRKQLSSQGTVRFFNSVRLWDFIENRESRHVPNNEDVDMTELGDLFMHLSGVESSEP
In the case of B1, the binding entry is listed as “binds”.

These data come from article PMC12767015.
